The list shows a part of the results.
Experiments:
Assay in all cases: log2 fold change, soluble protein after heating vs DMSO (PISA); higher = thermal stabilisation; K562 cells, 10 uM, 30 min; active = over 0.2 and 3.5 SD of the protein, either way, in both replicates (recomputed)
[1] = compound: CC[C@@H]1C(=O)N(C)c2cnc(Nc3ccc(C(=O)NC4CCN(C)CC4)cc3OC)nc2N1C1CCCC1
In short: (§1)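 K562 cells at 2×10^6 cells/mL were exposed to 10 μM compound for 30 min, then aliquots were heated for 3 min across 48°C-58°C, pooled, and extracted in PBS containing 0.5% NP-40 at 4°C. The supernatant after 21,000xg for 90 min was taken as soluble protein and measured by TMTpro 16plex LC-MS/MS with channel sums equalised. Thermal stability is reported relative to control samples, with values from duplicates. Fold changes are given on a log2 scale.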

Amino acid sequences for entries named in this document (tags omitted). A change or cut given only in a name is not applied to a line headed by its entry.
UniProt P12236: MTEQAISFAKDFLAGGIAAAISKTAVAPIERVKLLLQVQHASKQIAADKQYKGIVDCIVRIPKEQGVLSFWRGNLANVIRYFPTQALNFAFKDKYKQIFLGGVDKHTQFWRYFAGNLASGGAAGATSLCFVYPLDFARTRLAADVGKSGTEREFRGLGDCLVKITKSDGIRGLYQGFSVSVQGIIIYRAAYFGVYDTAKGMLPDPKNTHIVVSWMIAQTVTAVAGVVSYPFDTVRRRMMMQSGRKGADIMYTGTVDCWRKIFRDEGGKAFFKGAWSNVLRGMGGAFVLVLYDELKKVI
UniProt Q9H2D1: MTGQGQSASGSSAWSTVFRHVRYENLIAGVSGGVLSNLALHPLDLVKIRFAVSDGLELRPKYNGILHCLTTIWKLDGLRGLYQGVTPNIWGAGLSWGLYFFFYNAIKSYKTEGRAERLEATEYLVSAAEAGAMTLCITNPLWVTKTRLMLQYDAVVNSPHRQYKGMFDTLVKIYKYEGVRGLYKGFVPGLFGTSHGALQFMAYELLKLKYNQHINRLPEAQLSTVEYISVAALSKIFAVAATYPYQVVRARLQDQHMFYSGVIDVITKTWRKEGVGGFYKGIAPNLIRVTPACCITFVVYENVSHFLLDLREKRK
UniProt Q9Y619: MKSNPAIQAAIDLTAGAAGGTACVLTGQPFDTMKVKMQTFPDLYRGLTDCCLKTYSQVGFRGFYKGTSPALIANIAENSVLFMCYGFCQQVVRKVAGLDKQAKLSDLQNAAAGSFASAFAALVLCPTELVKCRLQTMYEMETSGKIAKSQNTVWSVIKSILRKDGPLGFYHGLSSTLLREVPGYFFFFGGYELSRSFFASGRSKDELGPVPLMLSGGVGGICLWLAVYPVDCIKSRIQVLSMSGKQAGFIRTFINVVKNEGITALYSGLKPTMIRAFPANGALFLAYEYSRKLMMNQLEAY
UniProt P53007, whole entry, looked up: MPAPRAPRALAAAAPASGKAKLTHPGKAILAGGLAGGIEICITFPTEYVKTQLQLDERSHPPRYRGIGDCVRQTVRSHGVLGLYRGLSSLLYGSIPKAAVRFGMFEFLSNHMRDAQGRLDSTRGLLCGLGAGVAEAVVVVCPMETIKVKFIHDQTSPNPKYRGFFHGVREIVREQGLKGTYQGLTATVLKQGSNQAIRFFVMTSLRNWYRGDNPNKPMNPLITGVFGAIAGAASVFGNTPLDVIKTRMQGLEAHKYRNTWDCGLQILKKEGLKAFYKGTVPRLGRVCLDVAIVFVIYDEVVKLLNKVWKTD
UniProt Q6NUK1: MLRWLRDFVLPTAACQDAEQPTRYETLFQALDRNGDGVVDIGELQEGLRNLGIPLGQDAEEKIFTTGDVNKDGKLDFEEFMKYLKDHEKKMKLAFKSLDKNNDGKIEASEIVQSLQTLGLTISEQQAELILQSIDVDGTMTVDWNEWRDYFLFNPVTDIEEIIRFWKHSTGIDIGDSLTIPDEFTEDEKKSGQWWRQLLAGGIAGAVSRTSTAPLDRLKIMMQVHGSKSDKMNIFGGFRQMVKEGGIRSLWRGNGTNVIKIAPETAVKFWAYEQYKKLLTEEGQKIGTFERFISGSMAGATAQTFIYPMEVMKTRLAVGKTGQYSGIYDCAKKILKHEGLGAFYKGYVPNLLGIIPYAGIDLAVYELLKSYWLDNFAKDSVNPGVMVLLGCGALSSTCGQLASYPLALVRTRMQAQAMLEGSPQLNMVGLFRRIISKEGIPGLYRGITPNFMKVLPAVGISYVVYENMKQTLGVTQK
UniProt Q9H936: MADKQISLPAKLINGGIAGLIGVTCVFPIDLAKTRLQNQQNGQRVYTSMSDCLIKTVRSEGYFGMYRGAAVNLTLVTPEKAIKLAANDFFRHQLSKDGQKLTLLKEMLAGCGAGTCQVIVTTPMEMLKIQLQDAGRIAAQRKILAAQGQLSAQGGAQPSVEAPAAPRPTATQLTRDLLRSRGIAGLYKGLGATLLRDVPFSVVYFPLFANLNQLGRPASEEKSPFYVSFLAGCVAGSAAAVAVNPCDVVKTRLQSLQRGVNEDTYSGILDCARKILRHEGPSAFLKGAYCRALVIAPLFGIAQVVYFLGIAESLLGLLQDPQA
UniProt Q9BRY0: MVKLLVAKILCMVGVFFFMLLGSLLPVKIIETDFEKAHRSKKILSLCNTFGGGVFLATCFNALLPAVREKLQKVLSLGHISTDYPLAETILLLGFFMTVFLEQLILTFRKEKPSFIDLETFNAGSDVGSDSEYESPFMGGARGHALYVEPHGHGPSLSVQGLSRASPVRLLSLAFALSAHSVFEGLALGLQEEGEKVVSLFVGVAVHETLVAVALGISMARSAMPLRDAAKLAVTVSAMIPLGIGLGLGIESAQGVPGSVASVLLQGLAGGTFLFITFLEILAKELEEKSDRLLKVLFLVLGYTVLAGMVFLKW
UniProt Q8TBP6: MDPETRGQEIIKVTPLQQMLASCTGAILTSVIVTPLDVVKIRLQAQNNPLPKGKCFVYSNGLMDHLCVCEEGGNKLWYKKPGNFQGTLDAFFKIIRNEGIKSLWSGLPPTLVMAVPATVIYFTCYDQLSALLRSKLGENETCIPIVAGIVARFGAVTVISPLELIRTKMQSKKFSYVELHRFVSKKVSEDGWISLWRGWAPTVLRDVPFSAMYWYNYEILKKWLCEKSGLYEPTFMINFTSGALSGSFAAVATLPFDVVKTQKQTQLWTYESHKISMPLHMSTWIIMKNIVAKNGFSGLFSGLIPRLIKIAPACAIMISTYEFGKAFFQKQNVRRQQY
UniProt Q9C0K1: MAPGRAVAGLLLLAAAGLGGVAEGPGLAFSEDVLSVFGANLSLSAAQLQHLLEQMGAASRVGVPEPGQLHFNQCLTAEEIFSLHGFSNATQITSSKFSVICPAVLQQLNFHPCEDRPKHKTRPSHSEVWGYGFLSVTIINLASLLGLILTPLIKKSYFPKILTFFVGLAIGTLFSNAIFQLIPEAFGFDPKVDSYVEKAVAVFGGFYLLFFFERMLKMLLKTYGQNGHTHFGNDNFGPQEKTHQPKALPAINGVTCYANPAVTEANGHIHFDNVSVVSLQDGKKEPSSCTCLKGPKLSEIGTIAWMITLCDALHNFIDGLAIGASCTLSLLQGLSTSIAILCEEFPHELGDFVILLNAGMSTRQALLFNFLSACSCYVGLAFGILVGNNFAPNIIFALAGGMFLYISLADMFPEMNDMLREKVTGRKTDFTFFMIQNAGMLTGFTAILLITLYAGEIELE
UniProt Q9ULF5: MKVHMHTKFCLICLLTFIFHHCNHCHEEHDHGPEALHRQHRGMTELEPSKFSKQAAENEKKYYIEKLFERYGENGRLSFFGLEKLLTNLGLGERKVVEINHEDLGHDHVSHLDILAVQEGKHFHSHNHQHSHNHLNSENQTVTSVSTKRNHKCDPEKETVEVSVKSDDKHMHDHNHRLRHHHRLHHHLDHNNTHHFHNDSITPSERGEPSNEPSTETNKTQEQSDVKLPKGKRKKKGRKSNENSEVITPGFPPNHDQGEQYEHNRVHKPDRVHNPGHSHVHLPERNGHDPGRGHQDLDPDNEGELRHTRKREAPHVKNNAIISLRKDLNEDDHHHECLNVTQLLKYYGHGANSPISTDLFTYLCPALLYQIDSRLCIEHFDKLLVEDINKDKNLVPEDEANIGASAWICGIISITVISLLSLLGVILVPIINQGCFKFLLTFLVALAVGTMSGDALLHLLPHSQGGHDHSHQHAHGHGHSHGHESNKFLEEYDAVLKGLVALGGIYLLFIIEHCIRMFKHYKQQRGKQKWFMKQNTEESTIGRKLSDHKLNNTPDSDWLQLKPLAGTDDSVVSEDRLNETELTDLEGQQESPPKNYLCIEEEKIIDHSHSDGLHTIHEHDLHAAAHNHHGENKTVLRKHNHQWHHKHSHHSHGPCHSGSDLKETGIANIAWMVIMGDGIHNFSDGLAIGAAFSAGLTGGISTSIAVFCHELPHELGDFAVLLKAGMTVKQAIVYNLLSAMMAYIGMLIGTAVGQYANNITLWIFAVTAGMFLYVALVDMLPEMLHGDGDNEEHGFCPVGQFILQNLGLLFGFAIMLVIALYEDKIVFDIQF
UniProt O43808: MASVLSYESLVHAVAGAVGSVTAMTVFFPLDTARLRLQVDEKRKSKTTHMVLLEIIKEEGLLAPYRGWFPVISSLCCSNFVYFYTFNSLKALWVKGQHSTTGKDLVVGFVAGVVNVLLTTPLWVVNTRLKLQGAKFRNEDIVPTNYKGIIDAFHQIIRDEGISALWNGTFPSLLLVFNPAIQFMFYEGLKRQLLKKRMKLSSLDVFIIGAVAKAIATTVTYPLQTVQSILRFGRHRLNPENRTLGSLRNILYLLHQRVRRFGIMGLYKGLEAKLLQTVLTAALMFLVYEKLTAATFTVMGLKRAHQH
UniProt Q96EP9: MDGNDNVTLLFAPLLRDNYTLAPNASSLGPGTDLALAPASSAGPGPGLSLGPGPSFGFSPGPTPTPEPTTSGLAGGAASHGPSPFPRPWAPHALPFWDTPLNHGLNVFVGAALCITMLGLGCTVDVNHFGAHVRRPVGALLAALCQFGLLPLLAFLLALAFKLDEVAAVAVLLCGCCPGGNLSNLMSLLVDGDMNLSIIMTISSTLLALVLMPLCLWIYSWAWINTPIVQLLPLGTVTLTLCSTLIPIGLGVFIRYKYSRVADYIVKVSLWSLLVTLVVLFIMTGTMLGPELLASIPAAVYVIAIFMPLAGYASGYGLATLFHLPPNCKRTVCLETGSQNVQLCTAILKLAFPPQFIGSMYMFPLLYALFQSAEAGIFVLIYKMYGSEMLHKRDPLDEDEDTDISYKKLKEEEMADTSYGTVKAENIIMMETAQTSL
UniProt Q6KCM7: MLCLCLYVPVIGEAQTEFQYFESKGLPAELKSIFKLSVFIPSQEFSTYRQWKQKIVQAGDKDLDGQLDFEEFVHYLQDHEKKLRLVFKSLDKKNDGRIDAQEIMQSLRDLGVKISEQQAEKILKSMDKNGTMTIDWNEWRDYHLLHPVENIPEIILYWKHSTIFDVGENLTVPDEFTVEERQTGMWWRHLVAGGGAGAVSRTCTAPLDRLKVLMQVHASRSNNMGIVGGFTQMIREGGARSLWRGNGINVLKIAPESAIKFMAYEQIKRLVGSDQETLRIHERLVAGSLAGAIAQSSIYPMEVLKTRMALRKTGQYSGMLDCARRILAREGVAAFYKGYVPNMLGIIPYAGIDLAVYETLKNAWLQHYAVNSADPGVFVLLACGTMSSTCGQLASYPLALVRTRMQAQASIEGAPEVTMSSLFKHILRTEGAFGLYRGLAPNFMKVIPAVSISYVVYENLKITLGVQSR
UniProt P43007: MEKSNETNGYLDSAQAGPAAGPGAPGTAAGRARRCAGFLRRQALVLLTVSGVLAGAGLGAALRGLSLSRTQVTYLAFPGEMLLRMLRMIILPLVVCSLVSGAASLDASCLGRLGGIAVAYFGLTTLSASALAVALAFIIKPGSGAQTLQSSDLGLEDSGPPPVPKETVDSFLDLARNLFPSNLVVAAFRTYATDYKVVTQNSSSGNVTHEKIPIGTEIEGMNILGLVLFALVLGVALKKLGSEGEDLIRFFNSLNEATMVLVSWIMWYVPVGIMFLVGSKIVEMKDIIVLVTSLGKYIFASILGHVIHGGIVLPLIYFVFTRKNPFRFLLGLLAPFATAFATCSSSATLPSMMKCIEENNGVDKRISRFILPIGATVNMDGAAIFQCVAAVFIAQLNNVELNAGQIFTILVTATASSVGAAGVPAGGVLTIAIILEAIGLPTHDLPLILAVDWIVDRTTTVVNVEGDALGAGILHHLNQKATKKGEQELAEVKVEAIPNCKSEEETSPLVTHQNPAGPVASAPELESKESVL
UniProt P30825: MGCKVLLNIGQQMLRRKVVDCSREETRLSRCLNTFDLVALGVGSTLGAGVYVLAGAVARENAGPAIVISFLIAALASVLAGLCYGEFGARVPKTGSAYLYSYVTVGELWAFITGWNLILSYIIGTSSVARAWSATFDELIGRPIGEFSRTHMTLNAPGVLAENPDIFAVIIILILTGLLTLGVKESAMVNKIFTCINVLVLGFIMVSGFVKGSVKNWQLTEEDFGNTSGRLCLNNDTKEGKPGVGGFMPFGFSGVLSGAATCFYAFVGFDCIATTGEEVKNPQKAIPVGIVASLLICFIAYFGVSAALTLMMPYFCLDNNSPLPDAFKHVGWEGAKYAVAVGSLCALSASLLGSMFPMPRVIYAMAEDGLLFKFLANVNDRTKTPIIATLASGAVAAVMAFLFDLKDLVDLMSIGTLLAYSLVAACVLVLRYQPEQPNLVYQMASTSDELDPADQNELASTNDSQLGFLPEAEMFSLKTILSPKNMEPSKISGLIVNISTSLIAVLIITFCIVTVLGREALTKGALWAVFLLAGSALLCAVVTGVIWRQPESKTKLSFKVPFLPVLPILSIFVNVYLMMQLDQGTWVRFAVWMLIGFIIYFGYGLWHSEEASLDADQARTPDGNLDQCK

volasertib = compound: CC[C@@H]1C(=O)N(C)c2cnc(Nc3ccc(C(=O)N[C@H]4CC[C@H](N5CCN(CC6CC6)CC5)CC4)cc3OC)nc2N1C(C)C [volasertib]
In short: as §1

[2] = compound: CC[C@H](C)N1C=C(C2=C(C=C(C=C21)C3=CN=C(C=C3)N4CCNCC4)C(=O)NCC5=C(C=C(NC5=O)C)C)C
In short: as §1

epoxomicin = compound: CC[C@H](C)[C@@H](C(=O)N[C@@H]([C@@H](C)O)C(=O)N[C@@H](CC(C)C)C(=O)[C@]1(CO1)C)NC(=O)[C@H]([C@@H](C)CC)N(C)C(=O)C [epoxomicin]
In short: as §1

[3] = compound: CCn1c(C(=O)N(C2CC2)C2CC2)cc2c3c(ncn3C)c(Nc3cc(C)n(C)n3)nc21
In short: as §1

[4] = compound: CCn1cc(-c2ccnc3[nH]c(-c4cccc(CN(C)C)c4)cc23)c(-c2ccc(NC(=O)N(C)C)cc2)n1
In short: as §1

[5] = compound: CN(C)CC(=O)Nc1ccc2[nH]c(=O)c3ccccc3c2c1
In short: as §1

rosiglitazone = compound: CN(CCOC1=CC=C(C=C1)C[C@H]2C(=O)NC(=O)S2)C3=CC=CC=N3 (racemic) [rosiglitazone]
In short: as §1

[6] = compound: CN1C2=C(C3=C1C(=O)N(N=C3)CC4=CC(=CC=C4)N)SC(=C2)S(=O)C
In short: as §1

[7] = compound: CN1CCC(CNc2ccc3ncc(-c4cccc(OC(F)(F)F)c4)n3n2)CC1
In short: as §1

saracatinib = compound: CN1CCN(CCOc2cc(OC3CCOCC3)c3c(Nc4c(Cl)ccc5c4OCO5)ncnc3c2)CC1 [saracatinib]
In short: as §1

sotrastaurin = compound: CN1CCN(c2nc(C3=C(c4c[nH]c5ccccc45)C(=O)NC3=O)c3ccccc3n2)CC1 [sotrastaurin]
In short: as §1

alvocidib = compound: CN1CC[C@H](c2c(O)cc(O)c3c(=O)cc(-c4ccccc4Cl)oc23)[C@H](O)C1 [alvocidib]
In short: as §1

Tubastatin A = compound: CN1CCc2c(c3ccccc3n2Cc2ccc(C(=O)NO)cc2)C1 [Tubastatin A]
In short: as §1

[8] = compound: CNC(=O)C1=CC=CC=C1NC2=NC(=NC=C2Cl)NC3=C(C=C(C=C3)N4CCOCC4)OC
In short: as §1

defactinib = compound: CNC(=O)c1ccc(Nc2ncc(C(F)(F)F)c(NCc3nccnc3N(C)S(C)(=O)=O)n2)cc1 [defactinib]
In short: as §1

rucaparib = compound: CNCc1ccc(-c2[nH]c3cc(F)cc4c3c2CCNC4=O)cc1 [rucaparib]
In short: as §1

[9] = compound: CNc1nc(-c2ccc3c(N)n[nH]c3c2)cc(N2C[C@@H](C(=O)NC3CCCCC3)CC[C@H]2C)n1
In short: as §1

encorafenib = compound: COC(=O)N[C@@H](C)CNc1nccc(-c2cn(C(C)C)nc2-c2cc(Cl)cc(NS(C)(=O)=O)c2F)n1 [encorafenib]
In short: as §1

[10] = compound: COC(=O)[C@H](CCSC)NC(=O)C1=C(C=C(C=C1)NC[C@H](CS)N)C2=CC=CC=C2
In short: as §1

Measured: log2 fold change

SLC25A6 (UniProt P12236)
inactive: [1] 0.017 | volasertib 0.046 | [2] -0.055 | epoxomicin -0.05 | [3] 0.048 | [4] 0.031 | [5] 0.012 | rosiglitazone 0.005 | [6] -0.038 | [7] 0.103 | saracatinib 0.015 | sotrastaurin 0.061 | alvocidib -0.002 | Tubastatin A -0.032 | [8] 0 | defactinib 0.008 | rucaparib -0.041 | [9] -0.038 | encorafenib -0.008 | [10] -0.001

SLC25A32 (UniProt Q9H2D1)
inactive: [1] 0.053 | volasertib 0.043 | [2] -0.051 | epoxomicin -0.069 | [3] -0.001 | [4] -0.006 | [5] -0.027 | rosiglitazone 0.032 | [6] -0.077 | [7] 0.052 | saracatinib 0.09 | sotrastaurin 0.021 | alvocidib 0.019 | Tubastatin A -0.017 | [8] -0.017 | defactinib -0.009 | rucaparib -0.052 | [9] -0.029 | encorafenib 0.039 | [10] 0.027

SLC25A15 (UniProt Q9Y619)
inactive: [1] 0.017 | volasertib 0.025 | [2] -0.062 | epoxomicin 0.004 | [3] -0.014 | [4] -0.039 | [5] -0.01 | rosiglitazone -0.006 | [6] -0.039 | [7] 0.085 | saracatinib 0.045 | sotrastaurin 0.049 | alvocidib -0.01 | Tubastatin A -0.024 | [8] 0.001 | defactinib -0.046 | rucaparib -0.129 | [9] -0.018 | encorafenib 0.077 | [10] 0.023

SLC25A1 (UniProt P53007)
inactive: [1] -0.008 | volasertib -0.031 | [2] -0.029 | epoxomicin 0.014 | [3] 0.03 | [4] -0.004 | [5] 0.004 | rosiglitazone 0.005 | [6] -0.038 | [7] 0.097 | saracatinib 0.079 | sotrastaurin 0.047 | alvocidib 0.023 | Tubastatin A -0.056 | [8] -0.008 | defactinib -0.002 | rucaparib -0.011 | [9] 0.002 | encorafenib -0.007 | [10] 0.03

SLC25A24 (UniProt Q6NUK1)
inactive: [1] 0.014 | volasertib 0.057 | [2] -0.039 | epoxomicin -0.027 | [3] 0.014 | [4] 0.006 | [5] -0.026 | rosiglitazone 0.008 | [6] -0.015 | [7] 0.078 | saracatinib 0.049 | sotrastaurin 0.046 | alvocidib -0.01 | Tubastatin A -0.032 | [8] 0.011 | defactinib -0.008 | rucaparib -0.018 | [9] -0.05 | encorafenib -0.021 | [10] 0.028

SLC25A22 (UniProt Q9H936)
inactive: [1] 0.01 | volasertib 0.024 | [2] -0.039 | epoxomicin 0.006 | [3] 0.015 | [4] 0.007 | [5] -0.017 | rosiglitazone 0.013 | [6] -0.025 | [7] -0.027 | saracatinib 0.01 | sotrastaurin 0.05 | alvocidib -0.011 | Tubastatin A -0.03 | [8] -0.012 | defactinib -0.008 | rucaparib -0.021 | [9] -0.064 | encorafenib -0.003 | [10] 0.069

SLC39A3 (UniProt Q9BRY0)
inactive: [1] 0.082 | volasertib -0.015 | [2] -0.095 | epoxomicin -0.099 | [3] 0.114 | [4] 0.073 | [5] 0.058 | rosiglitazone 0.043 | [6] -0.017 | [7] 0.056 | saracatinib 0.018 | sotrastaurin -0.003 | alvocidib 0.015 | Tubastatin A -0.035 | [8] 0.108 | defactinib -0.054 | rucaparib -0.088 | [9] -0.083 | encorafenib 0.018 | [10] 0.019

SLC25A40 (UniProt Q8TBP6)
inactive: [1] 0.029 | volasertib 0.069 | [2] -0.027 | epoxomicin 0.046 | [3] -0.044 | [4] -0.085 | [5] 0.033 | rosiglitazone -0.002 | [6] -0.03 | [7] 0.051 | saracatinib 0.037 | sotrastaurin 0.072 | alvocidib 0.003 | Tubastatin A -0.01 | [8] -0.021 | defactinib 0.026 | rucaparib -0.057 | [9] 0.016 | encorafenib 0.028 | [10] 0.029

SLC39A8 (UniProt Q9C0K1)
inactive: [1] -0.022 | volasertib -0.077 | [2] -0.044 | epoxomicin 0.079 | [3] 0.043 | [4] -0.083 | [5] 0.05 | rosiglitazone 0.014 | [6] -0.051 | [7] 0.006 | saracatinib 0.093 | sotrastaurin 0.028 | alvocidib 0.017 | Tubastatin A -0.004 | [8] 0.033 | defactinib 0.034 | rucaparib -0.186 | [9] -0.07 | encorafenib -0.026 | [10] 0.05

SLC39A10 (UniProt Q9ULF5)
inactive: [1] 0.151 | volasertib 0.083 | [2] -0.062 | epoxomicin 0.023 | [3] -0.007 | [4] -0.019 | [5] -0.053 | rosiglitazone 0.113 | [6] -0.061 | [7] 0.124 | saracatinib 0.065 | sotrastaurin 0.074 | alvocidib -0.021 | Tubastatin A -0.022 | [8] -0.1 | defactinib -0.005 | rucaparib -0.034 | [9] 0.041 | encorafenib -0.009 | [10] 0.038

SLC25A17 (UniProt O43808)
inactive: [1] 0.046 | volasertib -0.118 | [2] -0.039 | epoxomicin -0.075 | [3] 0.011 | [4] -0.024 | [5] -0.039 | rosiglitazone 0.017 | [6] -0.024 | [7] 0.18 | saracatinib 0.165 | sotrastaurin -0.025 | alvocidib -0.004 | Tubastatin A 0.025 | [8] 0.001 | defactinib 0 | rucaparib -0.022 | [9] 0.02 | encorafenib 0.004 | [10] 0.042

SLC10A4 (UniProt Q96EP9)
inactive: [1] 0.103 | volasertib 0.003 | [2] -0.087 | epoxomicin -0.048 | [3] 0.01 | [4] 0.105 | [5] -0.096 | rosiglitazone 0.009 | [6] 0.142 | [7] -0.033 | saracatinib -0.026 | sotrastaurin 0.051 | alvocidib 0.024 | Tubastatin A -0.078 | [8] -0.019 | defactinib 0.036 | rucaparib -0.055 | [9] -0.029 | encorafenib 0.009 | [10] 0.011

SLC25A25 isoform 3 (UniProt Q6KCM7)
inactive: [1] 0.052 | volasertib 0.007 | [2] -0.022 | epoxomicin 0.007 | [3] 0.026 | [4] -0.027 | [5] -0.055 | rosiglitazone -0.013 | [6] -0.027 | [7] 0.054 | saracatinib 0.022 | sotrastaurin 0.002 | alvocidib -0.004 | Tubastatin A -0.012 | [8] -0.021 | defactinib -0.033 | rucaparib -0.061 | [9] -0.051 | encorafenib 0.017 | [10] 0.001

SLC1A4 (UniProt P43007)
inactive: [1] 0.156 | volasertib 0.024 | [2] -0.05 | epoxomicin -0.01 | [3] 0.009 | [4] -0.014 | [5] -0.06 | rosiglitazone -0.031 | [6] -0.154 | [7] 0.195 | saracatinib 0.078 | sotrastaurin 0.023 | alvocidib 0.004 | Tubastatin A -0.027 | [8] -0.095 | defactinib -0.009 | rucaparib -0.045 | [9] 0.074 | encorafenib 0.012 | [10] 0.032

SLC26A6 (UniProt Q9BXS9)
inactive: [1] 0.042 | volasertib 0.031 | [2] -0.01 | epoxomicin 0.087 | [3] -0.009 | [4] -0.007 | [5] 0.042 | rosiglitazone 0.057 | [6] 0.081 | [7] 0.025 | saracatinib 0.072 | sotrastaurin 0.071 | alvocidib 0.004 | Tubastatin A -0.055 | [8] -0.154 | defactinib -0.05 | rucaparib 0.061 | [9] -0.06 | encorafenib -0.16 | [10] 0.137

Random excerpt: two records from the list, in no set order.
SLC1A4 (UniProt P43007)
inactive: [1] 0.156 | volasertib 0.024 | [2] -0.05 | epoxomicin -0.01 | [3] 0.009 | [4] -0.014 | [5] -0.06 | rosiglitazone -0.031 | [6] -0.154 | [7] 0.195 | saracatinib 0.078 | sotrastaurin 0.023 | alvocidib 0.004 | Tubastatin A -0.027 | [8] -0.095 | defactinib -0.009 | rucaparib -0.045 | [9] 0.074 | encorafenib 0.012 | [10] 0.032

SLC25A17 (UniProt O43808)
inactive: [1] 0.046 | volasertib -0.118 | [2] -0.039 | epoxomicin -0.075 | [3] 0.011 | [4] -0.024 | [5] -0.039 | rosiglitazone 0.017 | [6] -0.024 | [7] 0.18 | saracatinib 0.165 | sotrastaurin -0.025 | alvocidib -0.004 | Tubastatin A 0.025 | [8] 0.001 | defactinib 0 | rucaparib -0.022 | [9] 0.02 | encorafenib 0.004 | [10] 0.042

Carrying on.

SLC7A1 (UniProt P30825)
inactive: [1] 0.048 | volasertib -0.059 | [2] -0.068 | epoxomicin -0.001 | [3] 0.011 | [4] 0.046 | [5] 0.001 | rosiglitazone -0.01 | [6] -0.042 | [7] 0.031 | saracatinib 0.031 | sotrastaurin 0.059 | alvocidib 0.009 | Tubastatin A -0.033 | [8] -0.009 | defactinib -0.089 | rucaparib -0.014 | [9] -0.048 | encorafenib -0.006 | [10] 0.056
